PubChem BioAssay AID1259254 – NCATS | 2017
Purpose: 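Finding genes that stop cells copying their DNA twice in one cycle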 (primary screen). Cell system: human HCT116 colorectal cancer cells. Knock-down reagent: single siRNA against human genes. Time to read-out: 3 days. Measurement: 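Nuclei stained with Hoechst and imaged; cell-cycle phase assigned by DNA content; G2 share scaled per plate, non-targeting siRNA 0%, GMNN siRNA 100%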. Scale: G2 robust z-score: higher = more G2 cells, more excess DNA replication. Call rule: 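Active siRNAs have a G2 robust z of 5 or more median absolute deviations over the median, which in these data means about 38% or higher of GMNN control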.
The deposit covers about 59,000 reagents; this is a part drawn at random. About 1,550 of them (2.6%) were called active. 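G2 share is only a proxy for re-replication; each gene was hit by three separate siRNAs, and active genes were retested.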 The numbers tell different reagents against one gene apart. Further read-outs or replicates are left out here. Reagent sequences are not shown. The record does not give: the amount of reagent.

Depletion of ENC1 (GeneID 8507) #1 resulted in: G2 robust z-score 0.947; inactive.
ENC1 (GeneID 8507) #2 gave G2 robust z-score -0.358; inactive.
With knock-down of ENC1 (GeneID 8507) #3 the results were G2 robust z-score -0.15; inactive.
Against SPTY2D1 (GeneID 144108) #1 the deposit lists G2 robust z-score 1.37; inactive.
SPTY2D1 (GeneID 144108) #2 scored G2 robust z-score 0.288; inactive.
Against SPTY2D1 (GeneID 144108) #3, the entry reads G2 robust z-score 0.0127; inactive.

No new results follow: entries from further up.
SPTY2D1 (GeneID 144108) #1 | G2 robust z-score: 1.37; Call: inactive
SPTY2D1 (GeneID 144108) #2 | G2 robust z-score: 0.288; Call: inactive

More entries:
Silencing of PRR15L (GeneID 79170) #1 resulted in: G2 robust z-score -0.0942; inactive.
PRR15L (GeneID 79170) #2 showed G2 robust z-score -0.572; inactive.
After knock-down of PRR15L (GeneID 79170) #3 the results were G2 robust z-score 2.17; inactive.
For SRR (GeneID 63826) #1 the deposit lists G2 robust z-score 8.2; active.
SRR (GeneID 63826) #2 gave G2 robust z-score 2.53; inactive.
For SRR (GeneID 63826) #3 the deposit lists G2 robust z-score -0.528; inactive.
